According to publication PMC3511562:
These are yes or no findings as the source states them, for the method shown. Some entries that bind do so weakly or less than the wild type. Sequences can lack the tags named with a protein.

The chains behind the UniProt entries cited, without tags or fusion partners. Residues count along the entry.
UniProt P22646, residues 22-189: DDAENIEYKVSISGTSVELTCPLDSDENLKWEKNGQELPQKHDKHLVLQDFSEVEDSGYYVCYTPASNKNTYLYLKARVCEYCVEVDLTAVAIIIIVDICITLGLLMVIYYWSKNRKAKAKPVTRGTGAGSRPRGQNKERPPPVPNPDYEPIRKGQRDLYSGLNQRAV

Biological target: T1, SUC2::CD3δ::Cub-LexAVP16 fusion protein (mouse) (UniProt P04235)
T1 sequence: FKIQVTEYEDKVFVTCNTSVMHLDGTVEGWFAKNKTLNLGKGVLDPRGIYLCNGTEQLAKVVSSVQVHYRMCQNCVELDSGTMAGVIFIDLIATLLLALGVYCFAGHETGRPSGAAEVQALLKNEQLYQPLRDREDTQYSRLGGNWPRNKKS
Assay: two-hybrid; split-ubiquitin membrane yeast two-hybrid, directed tests; CD3δ-Cub bait with defined NubG preys (TCR subunits, controls); growth on Leu-,His-,Trp- and Leu-,His-,Trp-,Ade- plates; + is >100 colonies, +/− is <10 colonies

## CD3ε fused to the N-terminal domain of ubiquitin (from UniProt P22646 22-189)
  binding: binds
